No constants are given. Whether binding was seen depends on the method and setting. Binding seen in cells or lysates may run through a third protein. Binding calls can cover weak binding; strength is not graded here.
Columns and labels:
[1] = molecular target: T1, PEX5 (1–728), recombinant Arabidopsis PEX5 (Arabidopsis thaliana) (UniProt Q9FMA3); test: pull-down; Arabidopsis cytosolic fraction (~6 mg/mL, 500 μL) depleted on Ni–NTA, incubated with hexahistidine-tagged recombinant protein (33 μM in 50 μL PBS), 4 °C, 1 h; captured on Ni–NTA, washed with PBS, eluted with 1 M imidazole; immunoblots against PEX5, PEX7 and thiolase; only the target purified
T1 sequence: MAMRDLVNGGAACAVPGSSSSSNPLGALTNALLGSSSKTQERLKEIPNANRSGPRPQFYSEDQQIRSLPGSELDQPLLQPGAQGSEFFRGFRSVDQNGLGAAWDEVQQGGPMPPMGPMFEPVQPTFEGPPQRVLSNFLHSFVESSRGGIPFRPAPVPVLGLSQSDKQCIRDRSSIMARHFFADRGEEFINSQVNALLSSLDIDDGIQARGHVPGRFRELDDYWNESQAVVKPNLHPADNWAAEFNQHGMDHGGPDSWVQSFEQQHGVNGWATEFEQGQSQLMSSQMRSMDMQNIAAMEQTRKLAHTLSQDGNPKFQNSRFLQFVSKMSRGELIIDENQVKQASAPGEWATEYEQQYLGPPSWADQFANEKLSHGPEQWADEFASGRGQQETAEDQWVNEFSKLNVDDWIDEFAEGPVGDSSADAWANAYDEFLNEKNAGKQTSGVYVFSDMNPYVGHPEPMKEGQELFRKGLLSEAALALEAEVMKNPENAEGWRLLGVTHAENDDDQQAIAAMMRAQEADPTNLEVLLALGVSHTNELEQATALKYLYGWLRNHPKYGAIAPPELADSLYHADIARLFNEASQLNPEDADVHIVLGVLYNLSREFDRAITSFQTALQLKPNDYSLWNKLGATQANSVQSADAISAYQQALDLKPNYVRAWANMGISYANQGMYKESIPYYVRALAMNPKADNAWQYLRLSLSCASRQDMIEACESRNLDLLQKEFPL

By UniProt entry, the sequences of proteins in these tests, tags left out. Where a name states a change or a piece, a line headed by the entry shows the natural chain unless it says otherwise.
UniProt Q9FXT6: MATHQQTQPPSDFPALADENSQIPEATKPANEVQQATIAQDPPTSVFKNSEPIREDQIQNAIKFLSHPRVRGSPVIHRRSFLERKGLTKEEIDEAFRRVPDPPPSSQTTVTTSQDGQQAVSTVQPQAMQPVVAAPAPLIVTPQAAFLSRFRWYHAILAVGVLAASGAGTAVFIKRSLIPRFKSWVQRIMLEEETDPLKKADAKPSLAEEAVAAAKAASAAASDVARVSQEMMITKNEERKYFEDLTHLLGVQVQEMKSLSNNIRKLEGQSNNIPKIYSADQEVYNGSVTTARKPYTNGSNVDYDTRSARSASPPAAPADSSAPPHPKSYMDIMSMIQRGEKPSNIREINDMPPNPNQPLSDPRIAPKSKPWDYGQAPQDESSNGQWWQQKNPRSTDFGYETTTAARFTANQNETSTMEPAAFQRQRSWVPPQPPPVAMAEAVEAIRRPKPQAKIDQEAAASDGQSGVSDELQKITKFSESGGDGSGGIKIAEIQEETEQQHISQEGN

[2] = molecular target: PEX14 (1–154), termed PEX14N (Arabidopsis thaliana) (UniProt Q9FXT6); test: as above

## thiolase (PTS2 cargo; endogenous, Arabidopsis cytosol) (enzyme)
[1]
  binding: binds

B1: PEX7 (endogenous, Arabidopsis cytosol) (receptor, UniProt Q9XF57 1-317)
chain: MPVFKAPFNGYSVKFSPFYESRLAVATAQNFGILGNGRIHVLELAPGAPGVTESVSYDTADAVYDVCWSESHDSVLIAAIGDGSVKIYDTALPPPSNPIRSFQEHAREVQSVDYNPTRRDSFLTSSWDDTVKLWAMDRPASVRTFKEHAYCVYQAVWNPKHGDVFASASGDCTLRIWDVREPGSTMIIPAHDFEILSCDWNKYDDCILATSSVDKTVKVWDVRSYRVPLAVLNGHGYAVRKVKFSPHRRSLIASCSYDMSVCLWDYMVEDALVGRYDHHTEFAVGIDMSVLVEGLMASTGWDELVYVWQQGMDPRAS
[2]
  binding: binds

Reference: paper PMC4065332, “PEX14 binding to Arabidopsis PEX5 has differential effects on PTS1 and PTS2 cargo occupancy of the receptor” (Febs Letters, 2014)
